Test results published in the supplement of paper PMC6411743.
± gives the standard deviation of the averaged measurements. The list shows a part of the results, in another mix than the full data.

Sequences of proteins named here, by UniProt entry; tags and fusion partners are left off. A change or cut given only in a name is not applied to a line headed by its entry.
UniProt Q96DC7: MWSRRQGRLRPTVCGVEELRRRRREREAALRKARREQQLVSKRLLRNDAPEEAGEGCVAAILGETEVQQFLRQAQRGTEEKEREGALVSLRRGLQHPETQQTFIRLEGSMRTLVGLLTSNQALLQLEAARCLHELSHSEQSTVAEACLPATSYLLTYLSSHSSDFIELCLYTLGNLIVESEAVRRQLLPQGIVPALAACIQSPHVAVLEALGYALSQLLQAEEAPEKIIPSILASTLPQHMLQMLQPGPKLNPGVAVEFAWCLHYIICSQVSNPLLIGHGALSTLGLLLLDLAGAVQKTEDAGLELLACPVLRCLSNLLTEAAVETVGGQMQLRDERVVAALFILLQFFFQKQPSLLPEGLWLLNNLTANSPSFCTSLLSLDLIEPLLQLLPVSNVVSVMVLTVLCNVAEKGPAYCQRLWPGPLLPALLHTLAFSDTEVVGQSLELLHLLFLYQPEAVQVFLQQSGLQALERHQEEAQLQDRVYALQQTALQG
UniProt Q96GY0: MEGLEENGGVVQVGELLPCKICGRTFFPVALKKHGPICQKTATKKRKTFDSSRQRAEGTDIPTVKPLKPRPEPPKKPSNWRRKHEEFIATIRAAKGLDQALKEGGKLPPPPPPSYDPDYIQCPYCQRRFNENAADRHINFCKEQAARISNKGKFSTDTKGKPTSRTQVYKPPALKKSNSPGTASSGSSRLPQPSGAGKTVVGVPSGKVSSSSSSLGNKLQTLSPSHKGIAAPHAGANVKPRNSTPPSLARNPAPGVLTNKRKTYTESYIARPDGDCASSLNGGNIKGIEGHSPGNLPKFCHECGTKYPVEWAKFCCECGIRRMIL
UniProt Q96PU8: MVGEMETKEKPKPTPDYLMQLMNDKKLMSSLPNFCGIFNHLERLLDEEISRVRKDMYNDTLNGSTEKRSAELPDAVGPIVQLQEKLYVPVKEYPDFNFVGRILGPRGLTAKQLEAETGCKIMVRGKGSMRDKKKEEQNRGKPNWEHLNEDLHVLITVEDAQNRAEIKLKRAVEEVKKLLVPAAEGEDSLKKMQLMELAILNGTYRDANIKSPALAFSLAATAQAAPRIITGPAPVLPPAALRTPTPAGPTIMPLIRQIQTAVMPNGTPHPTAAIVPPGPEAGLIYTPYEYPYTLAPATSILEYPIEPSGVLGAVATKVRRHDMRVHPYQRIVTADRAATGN
UniProt Q96EM0: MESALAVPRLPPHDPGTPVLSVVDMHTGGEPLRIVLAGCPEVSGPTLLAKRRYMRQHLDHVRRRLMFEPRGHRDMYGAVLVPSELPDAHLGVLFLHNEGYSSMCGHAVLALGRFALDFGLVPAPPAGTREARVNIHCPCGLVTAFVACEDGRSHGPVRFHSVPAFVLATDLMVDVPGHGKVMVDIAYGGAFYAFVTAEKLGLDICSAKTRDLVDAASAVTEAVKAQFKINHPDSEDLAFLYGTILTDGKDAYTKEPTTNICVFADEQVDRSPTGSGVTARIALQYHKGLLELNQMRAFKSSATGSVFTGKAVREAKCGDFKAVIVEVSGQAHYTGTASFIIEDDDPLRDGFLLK
UniProt Q96F86: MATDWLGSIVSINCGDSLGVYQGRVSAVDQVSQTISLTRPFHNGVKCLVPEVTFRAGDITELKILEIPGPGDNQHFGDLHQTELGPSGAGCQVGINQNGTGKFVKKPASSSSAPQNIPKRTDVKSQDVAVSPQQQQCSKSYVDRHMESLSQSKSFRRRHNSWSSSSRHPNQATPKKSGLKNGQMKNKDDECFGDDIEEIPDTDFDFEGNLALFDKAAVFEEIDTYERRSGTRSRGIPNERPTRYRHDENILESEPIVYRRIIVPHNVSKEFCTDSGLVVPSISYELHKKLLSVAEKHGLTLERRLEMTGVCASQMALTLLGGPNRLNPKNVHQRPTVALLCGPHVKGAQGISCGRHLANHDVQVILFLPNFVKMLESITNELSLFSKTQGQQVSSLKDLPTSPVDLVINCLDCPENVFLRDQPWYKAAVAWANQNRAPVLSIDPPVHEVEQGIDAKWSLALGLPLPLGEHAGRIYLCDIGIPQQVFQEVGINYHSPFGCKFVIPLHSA
UniProt Q96IZ7: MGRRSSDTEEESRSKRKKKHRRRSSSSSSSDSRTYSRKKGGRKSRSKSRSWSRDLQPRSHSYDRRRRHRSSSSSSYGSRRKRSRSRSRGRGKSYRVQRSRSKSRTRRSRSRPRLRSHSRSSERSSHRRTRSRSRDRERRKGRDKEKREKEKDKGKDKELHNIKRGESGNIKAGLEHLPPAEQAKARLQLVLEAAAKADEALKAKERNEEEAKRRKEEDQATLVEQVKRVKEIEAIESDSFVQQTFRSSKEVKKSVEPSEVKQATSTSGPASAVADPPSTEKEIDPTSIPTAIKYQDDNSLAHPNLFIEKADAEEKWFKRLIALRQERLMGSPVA
UniProt Q96G03: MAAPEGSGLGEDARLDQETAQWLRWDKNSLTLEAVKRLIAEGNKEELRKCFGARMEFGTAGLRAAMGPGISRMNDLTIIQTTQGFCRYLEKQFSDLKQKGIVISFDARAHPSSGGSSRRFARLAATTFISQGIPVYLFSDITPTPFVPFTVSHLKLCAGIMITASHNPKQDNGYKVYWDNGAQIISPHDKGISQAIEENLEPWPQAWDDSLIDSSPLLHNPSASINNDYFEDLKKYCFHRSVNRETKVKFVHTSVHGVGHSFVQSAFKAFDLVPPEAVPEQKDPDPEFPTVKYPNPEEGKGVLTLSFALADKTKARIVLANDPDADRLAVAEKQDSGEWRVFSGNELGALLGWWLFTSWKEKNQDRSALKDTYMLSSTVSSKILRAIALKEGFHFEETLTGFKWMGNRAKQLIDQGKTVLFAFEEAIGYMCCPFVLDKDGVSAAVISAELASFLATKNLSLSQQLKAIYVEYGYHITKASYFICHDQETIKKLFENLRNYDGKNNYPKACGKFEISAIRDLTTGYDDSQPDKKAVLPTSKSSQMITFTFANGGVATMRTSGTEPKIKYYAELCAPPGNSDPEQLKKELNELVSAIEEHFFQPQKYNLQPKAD
UniProt Q96GX9: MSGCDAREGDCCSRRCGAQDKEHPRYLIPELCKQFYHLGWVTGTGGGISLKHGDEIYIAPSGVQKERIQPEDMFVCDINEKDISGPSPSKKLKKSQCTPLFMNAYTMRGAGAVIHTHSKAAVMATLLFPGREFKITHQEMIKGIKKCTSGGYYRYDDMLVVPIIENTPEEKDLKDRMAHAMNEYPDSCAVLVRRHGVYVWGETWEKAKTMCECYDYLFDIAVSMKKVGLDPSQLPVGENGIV
UniProt Q96RL1: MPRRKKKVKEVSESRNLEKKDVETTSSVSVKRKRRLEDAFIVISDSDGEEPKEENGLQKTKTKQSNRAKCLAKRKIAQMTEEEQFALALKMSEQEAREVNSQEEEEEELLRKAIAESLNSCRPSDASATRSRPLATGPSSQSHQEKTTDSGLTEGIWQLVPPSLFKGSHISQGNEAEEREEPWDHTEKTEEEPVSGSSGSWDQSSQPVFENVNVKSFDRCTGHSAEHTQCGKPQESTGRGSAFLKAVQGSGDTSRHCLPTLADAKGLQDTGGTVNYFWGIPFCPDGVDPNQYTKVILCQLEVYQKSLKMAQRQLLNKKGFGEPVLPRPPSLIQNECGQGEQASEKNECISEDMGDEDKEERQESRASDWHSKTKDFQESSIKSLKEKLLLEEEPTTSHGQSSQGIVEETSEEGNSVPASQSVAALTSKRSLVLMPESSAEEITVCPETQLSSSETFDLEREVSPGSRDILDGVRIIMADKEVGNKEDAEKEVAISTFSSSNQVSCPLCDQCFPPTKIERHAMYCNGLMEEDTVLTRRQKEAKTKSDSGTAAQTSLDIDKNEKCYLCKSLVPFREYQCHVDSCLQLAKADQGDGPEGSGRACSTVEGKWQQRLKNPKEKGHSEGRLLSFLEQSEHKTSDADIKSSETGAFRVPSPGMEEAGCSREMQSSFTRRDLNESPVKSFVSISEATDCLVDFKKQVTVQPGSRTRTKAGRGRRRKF
UniProt Q96EA4: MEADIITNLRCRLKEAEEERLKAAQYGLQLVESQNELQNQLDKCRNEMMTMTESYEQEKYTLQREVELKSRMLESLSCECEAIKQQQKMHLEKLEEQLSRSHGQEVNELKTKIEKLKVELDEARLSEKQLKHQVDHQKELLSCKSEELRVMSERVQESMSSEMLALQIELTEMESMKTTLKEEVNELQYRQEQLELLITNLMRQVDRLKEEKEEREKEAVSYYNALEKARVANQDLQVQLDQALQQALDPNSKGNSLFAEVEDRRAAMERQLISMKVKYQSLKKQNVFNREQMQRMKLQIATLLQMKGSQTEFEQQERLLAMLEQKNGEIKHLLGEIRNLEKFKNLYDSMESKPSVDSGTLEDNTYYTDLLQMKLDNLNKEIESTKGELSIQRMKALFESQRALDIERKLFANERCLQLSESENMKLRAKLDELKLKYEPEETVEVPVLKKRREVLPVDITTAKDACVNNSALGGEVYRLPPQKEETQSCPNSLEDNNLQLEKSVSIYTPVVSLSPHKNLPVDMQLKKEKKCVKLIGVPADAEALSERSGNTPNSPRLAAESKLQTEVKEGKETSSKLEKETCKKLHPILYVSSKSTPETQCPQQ
UniProt Q96RS6: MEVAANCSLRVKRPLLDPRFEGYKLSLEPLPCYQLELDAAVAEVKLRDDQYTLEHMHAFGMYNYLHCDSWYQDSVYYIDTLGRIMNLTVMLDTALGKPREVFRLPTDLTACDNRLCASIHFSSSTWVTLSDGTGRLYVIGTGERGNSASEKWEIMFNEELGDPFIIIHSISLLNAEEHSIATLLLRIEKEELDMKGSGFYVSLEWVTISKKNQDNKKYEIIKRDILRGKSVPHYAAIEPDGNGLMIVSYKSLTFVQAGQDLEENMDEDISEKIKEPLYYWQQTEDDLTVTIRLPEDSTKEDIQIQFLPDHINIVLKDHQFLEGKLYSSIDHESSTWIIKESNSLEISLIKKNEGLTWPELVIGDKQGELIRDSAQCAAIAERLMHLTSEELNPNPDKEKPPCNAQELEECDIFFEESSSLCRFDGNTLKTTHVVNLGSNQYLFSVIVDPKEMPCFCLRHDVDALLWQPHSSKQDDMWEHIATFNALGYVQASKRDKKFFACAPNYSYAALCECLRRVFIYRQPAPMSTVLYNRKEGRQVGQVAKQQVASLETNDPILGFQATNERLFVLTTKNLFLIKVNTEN
UniProt Q96JB2: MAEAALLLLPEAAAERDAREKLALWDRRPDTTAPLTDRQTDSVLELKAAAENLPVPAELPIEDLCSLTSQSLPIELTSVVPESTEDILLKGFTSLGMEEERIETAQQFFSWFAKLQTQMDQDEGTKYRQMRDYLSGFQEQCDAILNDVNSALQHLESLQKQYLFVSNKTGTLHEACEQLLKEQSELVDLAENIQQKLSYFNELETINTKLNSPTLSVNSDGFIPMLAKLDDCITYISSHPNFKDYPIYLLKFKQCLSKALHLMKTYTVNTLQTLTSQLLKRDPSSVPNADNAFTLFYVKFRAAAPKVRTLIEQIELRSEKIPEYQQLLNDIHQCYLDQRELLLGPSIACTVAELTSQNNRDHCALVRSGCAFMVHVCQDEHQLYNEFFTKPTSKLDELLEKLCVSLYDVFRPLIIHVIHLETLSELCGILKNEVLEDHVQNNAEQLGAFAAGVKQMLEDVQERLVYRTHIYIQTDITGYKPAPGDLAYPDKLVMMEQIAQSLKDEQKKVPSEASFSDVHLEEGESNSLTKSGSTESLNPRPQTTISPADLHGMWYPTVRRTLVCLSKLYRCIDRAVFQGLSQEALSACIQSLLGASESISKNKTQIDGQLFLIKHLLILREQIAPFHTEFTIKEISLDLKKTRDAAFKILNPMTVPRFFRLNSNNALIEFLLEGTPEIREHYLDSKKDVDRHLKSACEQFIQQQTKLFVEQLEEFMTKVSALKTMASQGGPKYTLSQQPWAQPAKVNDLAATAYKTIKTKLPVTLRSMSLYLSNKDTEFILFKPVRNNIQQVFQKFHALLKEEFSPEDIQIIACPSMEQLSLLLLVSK

Compound: Nc1ncnc2c1ncn2[C@@H]1O[C@H](COP(=O)(O)OP(=O)(O)OP(=O)(O)O)[C@@H](O)[C@H]1O [adenosine triphosphate]
Assay: NP40-soluble protein abundance relative to vehicle (solubility fold change) (ratio); higher = more soluble protein in presence of ATP
In short: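 Data come from three independent experiments in which Dounce-homogenised Jurkat crude lysate was treated at eight concentrations from 0.1 to 10 mM. Treatment ran 10 min at room temperature and then 3 min at 37 °C, after which 0.8% NP40 and benzonase were added for 60 min at 4 °C before ultracentrifugation. The supernatant underwent TMT labelling and LC-MS/MS, and vsn-normalised intensities were expressed as fold change against the detergent-processed vehicle in each replicate.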

Row | Target | NP40-soluble protein abundance (concentration: 1mM) | NP40-soluble protein abundance (concentration: 2mM) | NP40-soluble protein abundance (concentration: 4mM) | NP40-soluble protein abundance (concentration: 6mM) | NP40-soluble protein abundance (concentration: 8mM) | NP40-soluble protein abundance (concentration: 10mM)
1 | UniProt Q96DC7 and related entries | 0.961 ± 0.11 | 1.03 ± 0.13 | 1.02 ± 0.14 | 1.02 ± 0.097 | 0.937 ± 0.069 | 1 ± 0.034
2 | AJUBA (UniProt Q96IF1) | 1.02 ± 0.019 | 0.982 ± 0.024 | 1.02 ± 0.17 | 0.993 ± 0.04 | 1.05 ± 0.033 | 1.02 ± 0.1
3 | UniProt Q96RU2-2 | 1.03 ± 0.071 | 0.939 ± 0.029 | 0.951 ± 0.053 | 0.999 ± 0.052 | 1 ± 0.069 | 0.985 ± 0.025
4 | UniProt Q96GY0 | 0.851 ± 0.12 | 0.867 ± 0.051 | 0.907 ± 0.023 | 0.927 ± 0.029 | 0.898 ± 0.059 | 0.891 ± 0.061
5 | UniProt Q96PU8 and related entries | 0.969 ± 0.074 | 0.956 ± 0.041 | 0.999 ± 0.017 | 0.975 ± 0.061 | 0.984 ± 0.018 | 0.934 ± 0.067
6 | UniProt Q96EM0 | 0.964 ± 0.015 | 1 ± 0.071 | 0.99 ± 0.057 | 0.957 ± 0.08 | 0.99 ± 0.12 | 0.996 ± 0.086
7 | EDC3 (UniProt Q96F86) | 1.11 ± 0.047 | 1.1 ± 0.033 | 1.09 ± 0.053 | 1.13 ± 0.029 | 1.09 ± 0.081 | 1.08 ± 0.054
8 | UniProt Q96IZ7 and related entries | 1.5 ± 0.15 | 1.5 ± 0.22 | 1.47 ± 0.19 | 1.67 ± 0.22 | 1.56 ± 0.17 | 1.69 ± 0.24
9 | UniProt Q96G03 and related entries | 0.991 ± 0.11 | 0.962 ± 0.091 | 0.941 ± 0.067 | 0.909 ± 0.13 | 0.943 ± 0.06 | 0.947 ± 0.075
10 | UniProt Q96GX9 and related entries | 1.02 ± 0.014 | 0.9958 ± 0.0056 | 1.01 ± 0.023 | 0.973 ± 0.039 | 1 ± 0.022 | 0.9521 ± 0.0063
11 | UIMC1 (UniProt Q96RL1) | 0.949 ± 0.095 | 0.967 ± 0.07 | 0.979 ± 0.064 | 1.01 ± 0.068 | 0.961 ± 0.046 | 0.977 ± 0.078
12 | UniProt Q96EY5 | 1.01 ± 0.05 | 1.045 ± 0.0099 | 1.06 ± 0.028 | 1.01 ± 0.038 | 1.06 ± 0.046 | 1.04 ± 0.026
13 | UniProt Q96EA4 and related entries | 0.921 ± 0.084 | 0.909 ± 0.077 | 0.923 ± 0.095 | 0.925 ± 0.057 | 0.875 ± 0.047 | 0.903 ± 0.038
14 | NUDCD1 (UniProt Q96RS6) | 1.08 ± 0.12 | 1.02 ± 0.088 | 1.03 ± 0.097 | 0.968 ± 0.11 | 1.03 ± 0.03 | 0.987 ± 0.062
15 | COG3 (UniProt Q96JB2) | 1.05 ± 0.16 | 0.986 ± 0.11 | 1.03 ± 0.12 | 0.957 ± 0.14 | 0.964 ± 0.043 | 0.989 ± 0.085

Reprinted at random: two records from the list.
Row | Target | NP40-soluble protein abundance (concentration: 1mM) | NP40-soluble protein abundance (concentration: 2mM) | NP40-soluble protein abundance (concentration: 4mM) | NP40-soluble protein abundance (concentration: 6mM) | NP40-soluble protein abundance (concentration: 8mM) | NP40-soluble protein abundance (concentration: 10mM)
9 | UniProt Q96G03 and related entries | 0.991 ± 0.11 | 0.962 ± 0.091 | 0.941 ± 0.067 | 0.909 ± 0.13 | 0.943 ± 0.06 | 0.947 ± 0.075
11 | UIMC1 (UniProt Q96RL1) | 0.949 ± 0.095 | 0.967 ± 0.07 | 0.979 ± 0.064 | 1.01 ± 0.068 | 0.961 ± 0.046 | 0.977 ± 0.078
